Laboratory results published in patent US10513547B2, “Peptides and combination of peptides and scaffolds thereof for use in immunotherapy against colorectal carcinoma (CRC) and other cancers” (Immatics Biotechnologies GmbH, priority 2015, dated 2019).

Test system: HLA molecules from shock-frozen tissue samples (CRC, other tumors, normal tissues)
Assay: Identification and label-free relative LC-MS quantitation of HLA-presented tumor associated peptides (presentation profiles, XPRESIDENT)
Design: species or system human; key to Peptide Presentation (presentation score): very highly over-presented on tumors compared to a panel of normal tissues (+++); highly over-presented on tumors compared to a panel of normal tissues (++); over-presented on tumors compared to a panel of normal tissues (+)
Conditions: for Other relevant organs/diseases: additional tumor types: over-presented on more than 5% of measured tumor samples, or presented on more than 5% with ratio of geometric means tumor vs normal larger than 3; for Peptide Presentation (presentation score): over-presentation on tumors compared to a panel of normal tissues; for Additional Entities (additional tumor types on which the peptide was found): over-presentation on more than 5% of the measured tumor samples, or presentation on more than 5% of the measured tumor samples with ratio of geometric means tumor vs normal tissues larger than 3

| Substance | Other relevant organs/diseases | Peptide Presentation (presentation score) | Additional Entities (additional tumor types on which the peptide was found) | number of cancer tissues with detectable presentation of the peptide (all samples with detectable presentation, all tumor types) |
| --- | --- | --- | --- | --- |
| 76 (YLIGEKQHYL; listed as Homo sapiens) [compound 76] | Liver |  |  |  |
| 203 (KLIDLSQVMYL; listed as Homo sapiens) [compound 203] | Lung, Kidney, Pancreas, Ovary | + |  |  |
| 51 (QVWEIQHTV; listed as Homo sapiens) [compound 51] |  | ++ |  |  |
| 181 (NLFDLGGQYLRV; listed as Homo sapiens) [compound 181] | Brain, Liver, Ovary |  | CLL, Melanoma, Urinary bladder cancer |  |
| 255 (ALALWIPSL; listed as Homo sapiens) [compound 255] | Lung, Pancreas, Ovary, Esophagus |  |  |  |
| 107 (ALLGGGPYML; listed as Homo sapiens) [compound 107] | Lung |  | Urinary bladder cancer, Gallbladder Cancer, Bile Duct Cancer |  |
| 7 (YLTRHLAVL; listed as Homo sapiens) [compound 7] |  | +++ |  |  |
| SEQ ID NO.: 9 (ILDDHLSRV; listed as Homo sapiens) |  |  |  | 5 |
| 222 (GVIAEILRGV; listed as Homo sapiens) [compound 222] | Lung, Kidney, Brain, Liver |  |  |  |
| 249 (ALYGRLEVV; listed as Homo sapiens) [compound 249] | MCC, Ovary, Esophagus | + |  |  |
| 11 (YLFEKTFNM; listed as Homo sapiens) [compound 11] | Lung, Brain, Esophagus | +++ | SCLC, Urinary bladder cancer |  |
| 157 (SLIERDLKL; listed as Homo sapiens) [compound 157] | Lung, Kidney, Brain, Liver, Esophagus | ++ |  |  |
| 134 (GVAGGSILKGV; listed as Homo sapiens) [compound 134] | Lung, Liver, Melanoma, Ovary, Esophagus | +++ | CLL, BRCA, Urinary bladder cancer, Gallbladder Cancer, Bile Duct Cancer, NHL |  |
| 185 (VLYTGVVRV; listed as Homo sapiens) [compound 185] | Leukocytes, Melanoma, Ovary | + | SCLC, BRCA, Esophageal Cancer, AML, NHL |  |
| 12 (ALVQGILERV; listed as Homo sapiens) [compound 12] |  | +++ |  |  |
| 10 (RMYNKIFAI; listed as Homo sapiens) [compound 10] | Liver | +++ |  |  |
| 199 (FLLEREQLL; listed as Homo sapiens) [compound 199] | Kidney, Leukocytes, Melanoma | +++ |  |  |
| 42 (SILDDSFKL; listed as Homo sapiens) [compound 42] |  | +++ | Gallbladder Cancer, Bile Duct Cancer |  |
| 53 (FLLGSEIKL; listed as Homo sapiens) [compound 53] | Kidney, Pancreas | ++ | HCC, Melanoma, Urinary bladder cancer, AML |  |
| 120 (VLYEGVDEV; listed as Homo sapiens) [compound 120] |  |  | SCLC, BRCA, Gallbladder Cancer, Bile Duct Cancer |  |
| 195 (LLLGERVAL; listed as Homo sapiens) [compound 195] | Liver, Ovary | +++ |  |  |
| 27 (LLADEDSSYL; listed as Homo sapiens) [compound 27] |  | +++ |  |  |
| 41 (ILDDSFKLL; listed as Homo sapiens) [compound 41] |  | ++ |  |  |
